Values from PubChem BioAssay AID1259254 (NCATS, 2017)
This is an unselected part of about 59,000 deposited reagents. About 1,550 of them (2.6%) count as active. 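G2 share is only a proxy for re-replication; each gene was hit by three separate siRNAs, and active genes were retested.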 Raw values are not corrected between plates. A number with no mark means an inactive call. Reagents against one gene are numbered here. No sequences are given here. The record does not give: the amount of reagent.

- Test: 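Finding genes that stop cells copying their DNA twice in one cycle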 (primary screen)
- Cell system: human HCT116 colorectal cancer cells
- Reagent: single siRNA against human genes
- Timing: 3 days
- Measured: 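Imaged Hoechst DNA stain sorts each cell into a cycle phase by DNA amount; per plate, G2 fraction set to 0% for non-targeting and 100% for GMNN siRNA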
- Scale: G2 robust z-score and G2 cells, % of GMNN control: higher = more G2 cells, more excess DNA replication; raw share of cells in G2: higher = larger share of cells with G2 DNA content
- Rule for the call: 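An siRNA counts as active if its G2 robust z-score lies at least 5 MADs above the screen median; here such calls match roughly 38% of GMNN control or more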

target	siRNA no.	G2 robust z-score	G2 cells, % of GMNN control	raw share of cells in G2 (%)
MEIG1 (meiosis/spermiogenesis associated 1)	1	0.606	7.23	6.39
MEIG1 (meiosis/spermiogenesis associated 1)	2	-0.118	2.14	4.04
MEIG1 (meiosis/spermiogenesis associated 1)	3	1.19	11.3	6.44
OR52B6 (olfactory receptor family 52 subfamily B member 6)	1	-1.1	-4.79	2.34
OR52B6 (olfactory receptor family 52 subfamily B member 6)	2	-0.157	1.86	4.07
OR52B6 (olfactory receptor family 52 subfamily B member 6)	3	2.52	20.7	12.5
C5orf58 (chromosome 5 open reading frame 58)	1	1.76	15.4	9.97
C5orf58 (chromosome 5 open reading frame 58)	2	-0.386	0.251	3.18
C5orf58 (chromosome 5 open reading frame 58)	3	0.0686	3.45	3.83
PSG2 (pregnancy specific beta-1-glycoprotein 2)	1	0.0455	3.29	6.37
PSG2 (pregnancy specific beta-1-glycoprotein 2)	2	0.128	3.87	5.75
PSG2 (pregnancy specific beta-1-glycoprotein 2)	3	-0.366	0.393	3.5
LINC-PINT	1	0.476	6.32	5.94
LINC-PINT	2	1.15	11	8.2
LINC-PINT	3	-1.18	-5.36	2.34
LINC-PINT	4	-0.661	-1.68	2.97
LINC-PINT	5	3.29	26.1	13.3
LINC-PINT	6	-0.758	-2.37	2.31
CYP2B6 (cytochrome P450 family 2 subfamily B member 6)	1	-0.0351	2.72	5.93
CYP2B6 (cytochrome P450 family 2 subfamily B member 6)	2	-0.342	0.56	5.2
CYP2B6 (cytochrome P450 family 2 subfamily B member 6)	3	1.15	11.1	7.91
GRIN2D (glutamate ionotropic receptor NMDA type subunit 2D)	1	0.69	7.82	8.13
GRIN2D (glutamate ionotropic receptor NMDA type subunit 2D)	2	-1.36	-6.63	2.54
GRIN2D (glutamate ionotropic receptor NMDA type subunit 2D)	3	2.64	21.6	12.8

Records listed so far whose target name starts with P or p (3):
target	siRNA no.	G2 robust z-score	G2 cells, % of GMNN control	raw share of cells in G2 (%)
PSG2 (pregnancy specific beta-1-glycoprotein 2)	1	0.0455	3.29	6.37
PSG2 (pregnancy specific beta-1-glycoprotein 2)	2	0.128	3.87	5.75
PSG2 (pregnancy specific beta-1-glycoprotein 2)	3	-0.366	0.393	3.5

Continued:
target	siRNA no.	G2 robust z-score	G2 cells, % of GMNN control	raw share of cells in G2 (%)
COL19A1 (collagen type XIX alpha 1 chain)	1	-0.0522	2.6	6.52
COL19A1 (collagen type XIX alpha 1 chain)	2	-0.745	-2.27	3.25
COL19A1 (collagen type XIX alpha 1 chain)	3	-0.911	-3.44	2.17
GFOD1 (Gfo/Idh/MocA-like oxidoreductase domain containing 1)	1	1.35	12.5	8.59
GFOD1 (Gfo/Idh/MocA-like oxidoreductase domain containing 1)	2	-0.856	-3.06	4.57
GFOD1 (Gfo/Idh/MocA-like oxidoreductase domain containing 1)	3	1.57	14	9.43
GFOD1 (Gfo/Idh/MocA-like oxidoreductase domain containing 1)	4	-0.702	-1.97	3.25
GFOD1 (Gfo/Idh/MocA-like oxidoreductase domain containing 1)	5	3.4	26.9	11.4
GFOD1 (Gfo/Idh/MocA-like oxidoreductase domain containing 1)	6	-0.174	1.75	3.48
LOC644893 (MAGE family member E1 pseudogene)	1	0.285	4.97	5.53
LOC644893 (MAGE family member E1 pseudogene)	2	1.41	12.9	7.92
LOC644893 (MAGE family member E1 pseudogene)	3	-0.623	-1.41	2.73
CARD10 (caspase recruitment domain family member 10)	1	0.438	6.05	8.91
CARD10 (caspase recruitment domain family member 10)	2	-0.447	-0.177	4.13
CARD10 (caspase recruitment domain family member 10)	3	0.919	9.43	7.08
CLMB (calcimembrin)	1	3.3	26.2	13.3
CLMB (calcimembrin)	2	1.77	15.5	9.65
CLMB (calcimembrin)	3	1.72	15.1	11.1
SPMIP6 (sperm microtubule inner protein 6)	1	-0.954	-3.74	1.27
SPMIP6 (sperm microtubule inner protein 6)	2	2.36	19.5	10.6
SPMIP6 (sperm microtubule inner protein 6)	3	3.13	25	10.9
KIFC2 (kinesin family member C2)	1	1.74	15.2	10.2
KIFC2 (kinesin family member C2)	2	-1.27	-5.95	2.91
KIFC2 (kinesin family member C2)	3	-0.684	-1.85	4.17
VEZT (vezatin, adherens junctions transmembrane protein)	1	-0.0714	2.46	5.47
VEZT (vezatin, adherens junctions transmembrane protein)	2	-0.106	2.22	5.06
VEZT (vezatin, adherens junctions transmembrane protein)	3	4.37	33.7	13.9
GAS2 (growth arrest specific 2)	1	-0.577	-1.09	4.79
GAS2 (growth arrest specific 2)	2	-0.61	-1.33	3.6
GAS2 (growth arrest specific 2)	3	-0.901	-3.37	2.2
SESN1 (sestrin 1)	1	-0.735	-2.2	3.01
SESN1 (sestrin 1)	2	2.68	21.8	12.8
SESN1 (sestrin 1)	3	-0.586	-1.15	2.89
PIK3CB	1	0.208	4.43	7.07
PIK3CB	2	-0.172	1.76	6
PIK3CB	3	-0.565	-1.01	3.67
MYSM1 (Myb like, SWIRM and MPN domains 1)	1	-0.509	-0.612	5.39
MYSM1 (Myb like, SWIRM and MPN domains 1)	2	-0.63	-1.47	4.34
MYSM1 (Myb like, SWIRM and MPN domains 1)	3	-1.1	-4.79	2.67
TBC1D16 (TBC1 domain family member 16)	1	2.41	19.9	12.1
TBC1D16 (TBC1 domain family member 16)	2	-0.462	-0.285	3.25
TBC1D16 (TBC1 domain family member 16)	3	-0.532	-0.774	1.59
ACOT1 (acyl-CoA thioesterase 1)	1	-0.788	-2.57	2.63
ACOT1 (acyl-CoA thioesterase 1)	2	0.649	7.53	6.27
ACOT1 (acyl-CoA thioesterase 1)	3	3.47	27.4	12.4
